The supplement of paper PMC10032668
The other results are listed elsewhere or left out. Only hits are listed; about a third recur on repeated control peptides.

Chains of the proteins cited; added tags and fusions are not shown.
ANXA11, P50995, UniProt P50995, whole entry: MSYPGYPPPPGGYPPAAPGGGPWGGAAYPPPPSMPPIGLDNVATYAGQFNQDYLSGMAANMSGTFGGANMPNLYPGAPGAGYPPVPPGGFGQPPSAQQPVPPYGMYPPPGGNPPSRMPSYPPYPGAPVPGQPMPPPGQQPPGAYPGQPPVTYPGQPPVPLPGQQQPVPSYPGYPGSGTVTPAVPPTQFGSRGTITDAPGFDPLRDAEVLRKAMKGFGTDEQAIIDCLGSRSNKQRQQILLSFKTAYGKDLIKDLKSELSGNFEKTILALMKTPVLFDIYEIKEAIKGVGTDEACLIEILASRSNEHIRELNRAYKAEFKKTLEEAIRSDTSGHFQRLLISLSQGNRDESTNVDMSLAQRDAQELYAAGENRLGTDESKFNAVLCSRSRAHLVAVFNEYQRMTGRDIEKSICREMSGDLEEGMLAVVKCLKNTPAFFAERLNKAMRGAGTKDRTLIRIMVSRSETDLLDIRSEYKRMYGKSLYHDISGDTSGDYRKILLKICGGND
EIF2B5, Q13144, UniProt Q13144, whole entry: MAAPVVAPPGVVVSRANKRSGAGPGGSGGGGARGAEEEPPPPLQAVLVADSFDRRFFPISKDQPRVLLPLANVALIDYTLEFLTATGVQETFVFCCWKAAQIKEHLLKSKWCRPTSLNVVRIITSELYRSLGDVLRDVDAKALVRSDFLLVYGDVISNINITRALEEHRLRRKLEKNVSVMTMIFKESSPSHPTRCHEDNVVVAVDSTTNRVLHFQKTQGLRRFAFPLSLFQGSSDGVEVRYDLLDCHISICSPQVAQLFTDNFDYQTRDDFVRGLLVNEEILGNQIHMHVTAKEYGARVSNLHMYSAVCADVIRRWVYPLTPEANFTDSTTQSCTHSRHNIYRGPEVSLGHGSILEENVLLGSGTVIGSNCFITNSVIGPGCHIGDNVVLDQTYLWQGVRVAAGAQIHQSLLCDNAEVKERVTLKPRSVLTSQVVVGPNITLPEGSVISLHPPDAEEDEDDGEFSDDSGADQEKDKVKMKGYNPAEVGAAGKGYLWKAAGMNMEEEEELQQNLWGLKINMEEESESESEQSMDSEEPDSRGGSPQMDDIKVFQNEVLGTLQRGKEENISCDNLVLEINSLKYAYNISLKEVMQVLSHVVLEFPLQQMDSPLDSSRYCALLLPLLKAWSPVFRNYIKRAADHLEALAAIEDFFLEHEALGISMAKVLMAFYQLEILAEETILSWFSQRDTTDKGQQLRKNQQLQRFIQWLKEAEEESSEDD
INTS12, Q96CB8, UniProt Q96CB8, whole entry: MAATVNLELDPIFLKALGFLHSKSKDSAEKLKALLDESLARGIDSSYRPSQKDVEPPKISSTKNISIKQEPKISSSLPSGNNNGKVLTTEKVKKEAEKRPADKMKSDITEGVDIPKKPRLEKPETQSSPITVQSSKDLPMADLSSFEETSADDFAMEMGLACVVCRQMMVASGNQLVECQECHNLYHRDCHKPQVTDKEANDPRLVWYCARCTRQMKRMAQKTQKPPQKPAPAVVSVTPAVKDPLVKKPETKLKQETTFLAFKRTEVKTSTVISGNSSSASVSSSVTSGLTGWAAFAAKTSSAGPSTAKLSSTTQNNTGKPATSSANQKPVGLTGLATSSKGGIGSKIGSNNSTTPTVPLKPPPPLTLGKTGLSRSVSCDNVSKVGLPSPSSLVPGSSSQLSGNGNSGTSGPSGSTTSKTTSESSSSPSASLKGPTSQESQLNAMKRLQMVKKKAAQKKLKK
NMNAT1, Q9HAN9, UniProt Q9HAN9, whole entry: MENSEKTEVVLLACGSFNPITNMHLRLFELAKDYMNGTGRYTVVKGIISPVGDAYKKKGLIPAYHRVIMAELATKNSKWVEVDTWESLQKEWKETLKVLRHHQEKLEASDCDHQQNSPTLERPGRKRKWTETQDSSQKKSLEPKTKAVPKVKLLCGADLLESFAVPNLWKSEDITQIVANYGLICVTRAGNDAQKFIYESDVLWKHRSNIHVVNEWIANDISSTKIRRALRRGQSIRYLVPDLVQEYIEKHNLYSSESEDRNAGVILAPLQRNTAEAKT
PHF3, Q92576, UniProt Q92576, whole entry: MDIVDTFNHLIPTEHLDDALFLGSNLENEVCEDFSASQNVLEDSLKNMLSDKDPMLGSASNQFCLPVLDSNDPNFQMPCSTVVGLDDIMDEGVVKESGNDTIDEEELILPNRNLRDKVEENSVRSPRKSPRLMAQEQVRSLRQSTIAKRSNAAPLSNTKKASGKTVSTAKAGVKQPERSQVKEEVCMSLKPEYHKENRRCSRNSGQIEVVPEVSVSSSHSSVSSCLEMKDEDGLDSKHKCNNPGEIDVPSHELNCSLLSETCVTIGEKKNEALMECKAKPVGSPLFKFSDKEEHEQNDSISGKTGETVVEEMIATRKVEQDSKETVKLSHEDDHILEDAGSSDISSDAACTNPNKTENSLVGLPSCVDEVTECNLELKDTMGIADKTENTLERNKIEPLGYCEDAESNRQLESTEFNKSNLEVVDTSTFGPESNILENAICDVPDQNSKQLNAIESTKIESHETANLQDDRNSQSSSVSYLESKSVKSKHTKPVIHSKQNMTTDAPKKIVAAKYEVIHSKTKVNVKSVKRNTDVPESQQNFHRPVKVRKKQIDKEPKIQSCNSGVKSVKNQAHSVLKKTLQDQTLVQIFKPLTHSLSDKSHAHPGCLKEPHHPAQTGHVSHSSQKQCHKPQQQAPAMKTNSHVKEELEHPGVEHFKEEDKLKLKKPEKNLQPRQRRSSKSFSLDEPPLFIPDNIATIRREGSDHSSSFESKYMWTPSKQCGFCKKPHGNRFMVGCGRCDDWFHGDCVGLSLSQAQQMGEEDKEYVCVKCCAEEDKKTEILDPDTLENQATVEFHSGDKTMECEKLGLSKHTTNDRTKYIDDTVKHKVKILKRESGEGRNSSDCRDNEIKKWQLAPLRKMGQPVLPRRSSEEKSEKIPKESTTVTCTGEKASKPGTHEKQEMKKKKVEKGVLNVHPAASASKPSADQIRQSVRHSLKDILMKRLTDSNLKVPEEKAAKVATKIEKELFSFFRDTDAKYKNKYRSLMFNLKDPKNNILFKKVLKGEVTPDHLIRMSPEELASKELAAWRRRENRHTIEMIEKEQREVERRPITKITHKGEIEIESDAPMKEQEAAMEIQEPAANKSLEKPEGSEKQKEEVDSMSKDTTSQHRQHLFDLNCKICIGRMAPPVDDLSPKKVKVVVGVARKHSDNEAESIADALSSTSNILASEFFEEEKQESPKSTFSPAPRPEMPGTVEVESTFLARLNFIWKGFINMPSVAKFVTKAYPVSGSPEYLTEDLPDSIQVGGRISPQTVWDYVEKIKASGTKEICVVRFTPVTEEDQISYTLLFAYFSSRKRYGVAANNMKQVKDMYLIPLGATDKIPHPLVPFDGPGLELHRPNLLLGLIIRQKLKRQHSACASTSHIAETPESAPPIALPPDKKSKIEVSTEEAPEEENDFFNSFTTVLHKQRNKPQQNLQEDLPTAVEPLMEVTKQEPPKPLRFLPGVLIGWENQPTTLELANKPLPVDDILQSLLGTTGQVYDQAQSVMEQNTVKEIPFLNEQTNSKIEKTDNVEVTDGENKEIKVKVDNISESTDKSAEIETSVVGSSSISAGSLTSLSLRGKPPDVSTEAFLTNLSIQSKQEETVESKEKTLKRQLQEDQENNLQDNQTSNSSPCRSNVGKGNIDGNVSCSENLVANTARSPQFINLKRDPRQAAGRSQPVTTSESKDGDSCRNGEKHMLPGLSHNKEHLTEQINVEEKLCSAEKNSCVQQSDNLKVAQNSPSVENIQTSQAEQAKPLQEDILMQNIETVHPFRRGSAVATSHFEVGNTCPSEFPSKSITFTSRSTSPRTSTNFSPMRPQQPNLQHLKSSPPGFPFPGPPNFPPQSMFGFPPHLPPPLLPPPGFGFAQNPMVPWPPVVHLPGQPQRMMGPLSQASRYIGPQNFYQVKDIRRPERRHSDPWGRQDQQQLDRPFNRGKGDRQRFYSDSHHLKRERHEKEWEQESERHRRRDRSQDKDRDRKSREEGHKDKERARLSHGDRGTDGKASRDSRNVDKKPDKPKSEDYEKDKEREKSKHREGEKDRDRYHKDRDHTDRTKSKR
DUSP12, Q9UNI6, UniProt Q9UNI6, whole entry: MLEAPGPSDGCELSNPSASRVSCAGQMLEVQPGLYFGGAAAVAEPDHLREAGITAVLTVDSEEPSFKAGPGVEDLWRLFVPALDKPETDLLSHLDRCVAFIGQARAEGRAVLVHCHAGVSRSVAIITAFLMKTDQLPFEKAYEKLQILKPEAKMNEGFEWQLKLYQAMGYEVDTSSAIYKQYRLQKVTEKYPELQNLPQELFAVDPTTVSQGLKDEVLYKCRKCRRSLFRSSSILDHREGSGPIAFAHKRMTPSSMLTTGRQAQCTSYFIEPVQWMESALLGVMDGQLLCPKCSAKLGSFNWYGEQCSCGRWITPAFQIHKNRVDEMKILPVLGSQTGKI
UNC13C, Q8NB66, UniProt Q8NB66, whole entry: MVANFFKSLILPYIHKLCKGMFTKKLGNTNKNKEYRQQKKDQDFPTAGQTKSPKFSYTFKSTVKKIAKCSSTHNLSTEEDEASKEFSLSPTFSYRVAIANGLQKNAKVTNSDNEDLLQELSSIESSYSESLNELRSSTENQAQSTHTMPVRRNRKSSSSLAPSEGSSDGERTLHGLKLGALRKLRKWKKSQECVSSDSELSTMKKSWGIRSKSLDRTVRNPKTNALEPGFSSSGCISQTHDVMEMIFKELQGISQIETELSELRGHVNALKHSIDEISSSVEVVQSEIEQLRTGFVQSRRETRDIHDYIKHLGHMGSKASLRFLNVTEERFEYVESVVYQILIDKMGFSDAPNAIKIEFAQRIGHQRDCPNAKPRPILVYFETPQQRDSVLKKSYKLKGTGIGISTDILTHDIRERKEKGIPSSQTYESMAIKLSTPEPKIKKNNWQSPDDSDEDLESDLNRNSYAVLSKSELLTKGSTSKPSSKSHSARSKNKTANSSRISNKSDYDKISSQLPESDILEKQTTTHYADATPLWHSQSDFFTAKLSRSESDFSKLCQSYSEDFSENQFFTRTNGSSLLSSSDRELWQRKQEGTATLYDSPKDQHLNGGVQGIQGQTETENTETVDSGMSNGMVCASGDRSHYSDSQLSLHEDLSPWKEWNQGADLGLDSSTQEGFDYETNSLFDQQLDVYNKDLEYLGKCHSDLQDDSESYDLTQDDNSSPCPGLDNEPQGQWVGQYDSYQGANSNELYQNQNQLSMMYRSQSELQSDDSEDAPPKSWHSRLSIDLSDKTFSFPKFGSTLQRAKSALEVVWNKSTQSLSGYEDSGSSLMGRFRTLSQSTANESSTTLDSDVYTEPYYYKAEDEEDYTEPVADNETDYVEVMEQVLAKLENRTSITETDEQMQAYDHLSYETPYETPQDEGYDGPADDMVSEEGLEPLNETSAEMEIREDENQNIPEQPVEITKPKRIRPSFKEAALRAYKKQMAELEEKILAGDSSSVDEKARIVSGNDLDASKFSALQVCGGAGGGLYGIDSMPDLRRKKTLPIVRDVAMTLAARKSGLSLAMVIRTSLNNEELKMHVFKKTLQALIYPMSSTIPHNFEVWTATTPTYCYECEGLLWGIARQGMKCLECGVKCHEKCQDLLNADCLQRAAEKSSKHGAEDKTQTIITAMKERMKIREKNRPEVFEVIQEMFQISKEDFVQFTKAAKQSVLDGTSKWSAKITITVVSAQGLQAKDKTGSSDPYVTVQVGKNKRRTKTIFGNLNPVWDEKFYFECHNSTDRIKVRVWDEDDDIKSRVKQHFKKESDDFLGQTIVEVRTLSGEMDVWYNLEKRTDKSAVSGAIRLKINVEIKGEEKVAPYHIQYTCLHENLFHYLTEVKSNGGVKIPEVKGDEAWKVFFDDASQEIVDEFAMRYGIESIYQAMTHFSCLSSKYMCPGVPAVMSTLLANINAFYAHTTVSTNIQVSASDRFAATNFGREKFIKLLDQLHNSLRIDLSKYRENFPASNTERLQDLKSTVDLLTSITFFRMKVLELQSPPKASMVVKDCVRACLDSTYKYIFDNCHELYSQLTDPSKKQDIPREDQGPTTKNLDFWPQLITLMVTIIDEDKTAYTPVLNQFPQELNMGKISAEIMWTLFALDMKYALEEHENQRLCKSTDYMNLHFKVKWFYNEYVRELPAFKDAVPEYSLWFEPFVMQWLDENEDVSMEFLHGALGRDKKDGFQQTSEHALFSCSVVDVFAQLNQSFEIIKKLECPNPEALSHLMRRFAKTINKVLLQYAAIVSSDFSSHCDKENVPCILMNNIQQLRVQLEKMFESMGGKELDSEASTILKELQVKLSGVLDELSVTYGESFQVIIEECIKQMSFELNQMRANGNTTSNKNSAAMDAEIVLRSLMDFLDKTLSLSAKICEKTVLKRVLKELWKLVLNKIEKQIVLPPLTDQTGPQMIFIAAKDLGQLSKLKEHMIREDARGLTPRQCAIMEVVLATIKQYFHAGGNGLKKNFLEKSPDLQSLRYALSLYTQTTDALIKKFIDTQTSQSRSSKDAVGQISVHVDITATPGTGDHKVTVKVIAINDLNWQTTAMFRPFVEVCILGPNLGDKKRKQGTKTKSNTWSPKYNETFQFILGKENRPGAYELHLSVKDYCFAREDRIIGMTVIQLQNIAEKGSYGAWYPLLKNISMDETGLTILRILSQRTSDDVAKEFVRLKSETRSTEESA

Columns and labels:
Assay in all cases: PRISMA enrichment of interactor (LFQ) in peptide spot vs all other peptide spots (log2 fold change); higher = stronger / more specific binding of the interactor to the peptide
[1] = molecular target: ANXA11, P50995
Method: (§1)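 PRISMA: 15-aa overlapping tiles (offset 8 aa) of 60 microproteins, plus SOS1/GLUT1 control peptides, were spot-synthesized on cellulose membranes in triplicate. Membranes were incubated with benzonase-treated HEK293T lysate, and bound proteins were identified by LC-MS/MS with LFQ. Enrichment is the log2 fold change of each protein in one spot versus all other spots. Only interactors passing the significance cutoff are listed.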

[2] = molecular target: DAZAP1, Q96EP5
Method: as §1

[3] = molecular target: DDX5, P17844
Method: as §1

[4] = molecular target: DERPC, P0CG12
Method: as §1

[5] = molecular target: EWSR1, Q01844
Method: as §1

[6] = molecular target: G3BP2, Q9UN86
Method: as §1

[7] = molecular target: LSM12, Q3MHD2
Method: as §1

[8] = molecular target: MAPK1IP1L, Q8NDC0
Method: as §1

[9] = molecular target: MARK2, Q7KZI7
Method: as §1

[10] = molecular target: MRPL3, P09001
Method: as §1

[11] = molecular target: SFXN2, Q96NB2
Method: as §1

[12] = molecular target: ANP32E, Q9BTT0
Method: as §1

[13] = molecular target: ASPH, Q12797
Method: as §1

[14] = molecular target: DCUN1D5, Q9BTE7
Method: as §1

[15] = molecular target: EIF2B5, Q13144
Method: as §1

[16] = molecular target: INTS12, Q96CB8
Method: as §1

[17] = molecular target: KARS, Q15046
Method: as §1

[18] = molecular target: MKI67, P46013
Method: as §1

[19] = molecular target: MRPS22, P82650
Method: as §1

[20] = molecular target: NMNAT1, Q9HAN9
Method: as §1

[21] = molecular target: PHF3, Q92576
Method: as §1

[22] = molecular target: PUM1, Q14671
Method: as §1

[23] = molecular target: RBMXL1, Q96E39
Method: as §1

[24] = molecular target: S100A8, P05109
Method: as §1

[25] = molecular target: SCP2, P22307
Method: as §1

[26] = molecular target: TRMT5, Q32P41
Method: as §1

[27] = molecular target: XRN1, Q8IZH2
Method: as §1

[28] = molecular target: ANXA5, P08758
Method: as §1

[29] = molecular target: HOMER3, Q9NSC5
Method: as §1

[30] = molecular target: MED14, O60244
Method: as §1

[31] = molecular target: NAP1L1, P55209
Method: as §1

[32] = molecular target: NUCKS1, Q9H1E3
Method: as §1

[33] = molecular target: OLA1, Q9NTK5
Method: as §1

[34] = molecular target: RNF213, Q63HN8
Method: as §1

[35] = molecular target: YTHDC2, Q9H6S0
Method: as §1

[36] = molecular target: DUSP12, Q9UNI6
Method: as §1

[37] = molecular target: GTF2E2, P29084
Method: as §1

[38] = molecular target: KIF1A, Q12756
Method: as §1

[39] = molecular target: PAXBP1, Q9Y5B6
Method: as §1

[40] = molecular target: UNC13C, Q8NB66
Method: as §1

## VWLWIAPYGQLCPQG [GAS5]
[1]
  PRISMA enrichment of interactor (log2): 4.53
[2]
  PRISMA enrichment of interactor (log2): 4.66
[3]
  PRISMA enrichment of interactor (log2): 4.54
[4]
  PRISMA enrichment of interactor (log2): 4.38
[5]
  PRISMA enrichment of interactor (log2): 5.78
[6]
  PRISMA enrichment of interactor (log2): 5.35
[7]
  PRISMA enrichment of interactor (log2): 5.21
[8]
  PRISMA enrichment of interactor (log2): 6.49
[9]
  PRISMA enrichment of interactor (log2): 5.03
[10]
  PRISMA enrichment of interactor (log2): 4.64
[11]
  PRISMA enrichment of interactor (log2): 5.82

## AHGCRPEWRWLWLGR [RP11-464C19.3]
[12]
  PRISMA enrichment of interactor (log2): 8.73
[13]
  PRISMA enrichment of interactor (log2): 3.7
[14]
  PRISMA enrichment of interactor (log2): 5.24
[15]
  PRISMA enrichment of interactor (log2): 4.4
[16]
  PRISMA enrichment of interactor (log2): 4.47
[17]
  PRISMA enrichment of interactor (log2): 4.61
[18]
  PRISMA enrichment of interactor (log2): 4.85
[19]
  PRISMA enrichment of interactor (log2): 5.07
[20]
  PRISMA enrichment of interactor (log2): 4.81
[21]
  PRISMA enrichment of interactor (log2): 5.08
[22]
  PRISMA enrichment of interactor (log2): 5.49
[23]
  PRISMA enrichment of interactor (log2): 4.6
[24]
  PRISMA enrichment of interactor (log2): 4.06
[25]
  PRISMA enrichment of interactor (log2): 5.93
[26]
  PRISMA enrichment of interactor (log2): 4.54
[27]
  PRISMA enrichment of interactor (log2): 4.46

## RRLRARSWALRGARK
[28]
  PRISMA enrichment of interactor (log2): 4.4
[29]
  PRISMA enrichment of interactor (log2): 4.2
[30]
  PRISMA enrichment of interactor (log2): 3.77
[31]
  PRISMA enrichment of interactor (log2): 4.38
[32]
  PRISMA enrichment of interactor (log2): 4.45
[33]
  PRISMA enrichment of interactor (log2): 4.86
[34]
  PRISMA enrichment of interactor (log2): 5.76
[35]
  PRISMA enrichment of interactor (log2): 4.48

## MPVWWRRRRLRARSW
[28]
  PRISMA enrichment of interactor (log2): 4.82
[36]
  PRISMA enrichment of interactor (log2): 4.18
[37]
  PRISMA enrichment of interactor (log2): 5.71
[38]
  PRISMA enrichment of interactor (log2): 4.67
[39]
  PRISMA enrichment of interactor (log2): 4.26

## SSVKEAWMKKQRQSQ [TRDN-AS1_2]
[12]
  PRISMA enrichment of interactor (log2): 3.83
[40]
  PRISMA enrichment of interactor (log2): 4.1
